Experimental data: PubChem BioAssay AID1259425 (University of Nebraska Medical Center, 2018)
Screen: 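Seek colon cancer weak points whose silencing resembles KSR1 loss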 (primary screen). Cell system: HCT116 human colon cancer cells. Reagents: siRNA pool against human genes, 50 nM siRNA. Measured: 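After 50 nM siRNA pool, branched-DNA assay measures six marker transcripts per well, minus blank, normalised to the geometric mean of two housekeeping transcripts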. Scale: BNIP3L mRNA: higher = more BNIP3L transcript after knockdown; NDRG1 mRNA: higher = more NDRG1 transcript after knockdown; BNIP3 mRNA: higher = more BNIP3 transcript after knockdown; ALDOC mRNA: higher = more ALDOC transcript after knockdown; ACSL5 mRNA: higher = more ACSL5 transcript after knockdown.
Shown is an unselected part of about 14,000 reagents tested. The record does not give: the time to read-out.

| Target gene | BNIP3L mRNA, set 1 | NDRG1 mRNA, set 1 | BNIP3 mRNA, set 1 | ALDOC mRNA, set 1 | ACSL5 mRNA, set 1 |
| --- | --- | --- | --- | --- | --- |
| SEC23B | 0.256 | 0.56 | 0.741 | 0.0809 | 0.263 |
| HAUS5 | 0.103 | 0.18 | 0.256 | 0.0817 | 0.151 |
| PPM1A | 0.0433 | 0.0948 | 0.254 | 0.0215 | 0.169 |
| SPANXC | 0.116 | 0.251 | 0.344 | 0.0153 | 0.19 |
| PSD2 | 0.155 | 0.14 | 0.294 | 0.0474 | 0.232 |
| TSHR | 0.211 | 0.131 | 0.523 | 0.0445 | 0.0952 |
| EPM2AIP1 | 0.0939 | 0.172 | 0.344 | 0.0169 | 0.454 |
| PDSS1 | 0.067 | 0.101 | 0.432 | 0.0103 | 0.337 |
| OXCT1 | 0.0954 | 0.142 | 0.216 | 0.0159 | 0.124 |
| GPR50 | 0.118 | 0.215 | 0.265 | 0.0492 | 0.2 |
| PCDHGA2 | 0.0634 | 0.135 | 0.262 | 0.0182 | 0.0796 |
| CAMK1G | 0.0807 | 0.144 | 0.485 | 0.0166 | 0.18 |
| PLAAT1 | 0.604 | 0.417 | 0.46 | 0.0283 | 0.187 |
| STAT5B | 0.0681 | 0.183 | 0.291 | 0.041 | 0.149 |
| SLC12A9 | 0.182 | 0.188 | 0.516 | 0.0441 | 0.266 |
| ERC2 | 0.103 | 0.534 | 0.205 | 0.0104 | 0.21 |
| CRISP3 | 0.126 | 0.194 | 0.197 | 0.0113 | 0.113 |
| PCNP | 0.0654 | 0.188 | 0.299 | 0.0236 | 0.145 |
| TASOR | 0.137 | 0.419 | 0.307 | 0.086 | 0.177 |
| SSPOP | 0.288 | 0.866 | 0.311 | 0.0178 | 0.395 |
| UTP15 | 0.299 | 0.449 | 0.352 | 0.0716 | 0.555 |
| TRIM62 | 0.115 | 0.184 | 0.287 | 0.0184 | 0.149 |
| RGS7 | 0.226 | 0.393 | 0.75 | 0.0868 | 0.255 |
| PRDX5 | 0.196 | 0.111 | 0.379 | 0.0409 | 0.0683 |
| ADGRG4 | 0.106 | 0.214 | 0.335 | 0.0298 | 0.233 |
| TPI1 | 0.0673 | 0.127 | 0.26 | 0.0328 | 0.0903 |
| PRDM8 | 0.146 | 0.21 | 0.316 | 0.0134 | 0.0884 |
| TBPL1 | 0.0624 | 0.071 | 0.325 | 0.0182 | 0.122 |
| BTN1A1 | 0.0997 | 0.169 | 0.243 | 0.0292 | 0.191 |
| ZBTB11 | 0.0762 | 0.219 | 0.188 | 0.0134 | 0.163 |
| DENND4C | 0.0945 | 0.0865 | 0.4 | 0.0209 | 0.168 |
| BAHCC1 | 0.0492 | 0.166 | 0.289 | 0.0208 | 0.274 |
| TMEM127 | 0.185 | 0.215 | 0.336 | 0.023 | 0.191 |
| CRLS1 | 0.154 | 0.212 | 0.333 | 0.0501 | 0.0692 |
| FLCN | 0.141 | 0.157 | 0.273 | 0.0348 | 0.197 |
| PLA2G15 | 0.106 | 0.201 | 0.181 | 0.0385 | 0.139 |
| SLC4A2 | 0.186 | 0.229 | 0.179 | 0.0256 | 0.179 |
| NCAPH | 0.068 | 0.176 | 0.344 | 0.0258 | 0.119 |
| ATP5PO | 0.0609 | 0.0432 | 0.269 | 0.0187 | 0.0721 |
| IVD | 0.102 | 0.0853 | 0.288 | 0.0241 | 0.0307 |
| ABCB9 | 0.137 | 0.853 | 0.3 | 0.0515 | 0.243 |
| SOX9 | 0.0553 | 0.175 | 0.386 | -0.000149 | 0.201 |
| FHL5 | 0.139 | 0.304 | 0.405 | 0.0373 | 0.307 |
| SNAPC3 | 0.148 | 0.115 | 0.395 | 0.00782 | 0.162 |
| RPS23 | 0.0776 | 0.146 | 0.323 | 0.0135 | 0.117 |
| ADAM3B | 0.177 | 0.176 | 0.328 | 0.079 | 0.186 |
| CFL1 | 0.08 | 0.508 | 0.395 | 0.0476 | 0.384 |
| ETV7 | 0.0825 | 0.11 | 0.264 | 0.0101 | 0.233 |
| KIF11 | 0.0613 | 0.106 | 0.115 | 0.0491 | 0.224 |
| IRX3 | 0.123 | 0.167 | 0.397 | 0.0245 | 0.199 |

Copied from the list.
For “BNIP3 mRNA, set 1”, UTP15 reads 0.352
CRISP3, BNIP3L mRNA, set 1: 0.126
IRX3, NDRG1 mRNA, set 1: 0.167
Entry for SEC23B under “NDRG1 mRNA, set 1”: 0.56
Result for TASOR under “NDRG1 mRNA, set 1”: 0.419
